Source: article PMC7822688, “W196 and the β-Hairpin Motif Modulate the Redox Switch of Conformation and the Biomolecular Interaction Network of the Apoptosis-Inducing Factor” (Oxidative Medicine and Cellular Longevity, 2021)

By UniProt entry, the sequences of proteins in these tests, tags left out. Residues count along the entry.
UniProt O95831, 102-613, stated change not applied: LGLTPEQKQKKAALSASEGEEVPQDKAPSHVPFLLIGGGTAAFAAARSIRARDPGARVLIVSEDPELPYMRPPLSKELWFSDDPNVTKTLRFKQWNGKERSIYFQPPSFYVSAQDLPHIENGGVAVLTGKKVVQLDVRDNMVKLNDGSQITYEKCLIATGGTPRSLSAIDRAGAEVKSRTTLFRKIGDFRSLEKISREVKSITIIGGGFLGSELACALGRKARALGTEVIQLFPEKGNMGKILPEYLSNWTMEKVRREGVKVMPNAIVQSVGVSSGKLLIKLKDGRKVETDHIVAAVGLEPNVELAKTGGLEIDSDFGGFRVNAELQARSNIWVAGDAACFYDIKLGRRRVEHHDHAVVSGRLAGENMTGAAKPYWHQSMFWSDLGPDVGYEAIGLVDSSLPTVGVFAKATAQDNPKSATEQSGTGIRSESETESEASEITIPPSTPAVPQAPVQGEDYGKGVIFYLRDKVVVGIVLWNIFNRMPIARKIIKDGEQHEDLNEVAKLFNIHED
UniProt O95831, 102-613 W196Y: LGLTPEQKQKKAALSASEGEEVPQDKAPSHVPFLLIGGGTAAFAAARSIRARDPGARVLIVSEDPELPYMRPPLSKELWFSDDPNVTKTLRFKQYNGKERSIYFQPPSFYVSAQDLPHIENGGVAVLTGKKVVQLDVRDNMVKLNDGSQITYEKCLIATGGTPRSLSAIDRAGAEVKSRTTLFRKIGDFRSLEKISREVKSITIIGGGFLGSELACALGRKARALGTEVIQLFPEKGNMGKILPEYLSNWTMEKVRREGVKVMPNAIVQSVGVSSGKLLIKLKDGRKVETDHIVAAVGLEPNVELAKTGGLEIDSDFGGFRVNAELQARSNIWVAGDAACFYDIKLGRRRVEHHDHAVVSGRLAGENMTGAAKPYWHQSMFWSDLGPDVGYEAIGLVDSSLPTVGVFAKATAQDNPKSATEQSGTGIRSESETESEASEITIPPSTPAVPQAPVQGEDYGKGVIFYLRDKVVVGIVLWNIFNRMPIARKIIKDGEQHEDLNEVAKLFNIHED
UniProt O95831, 102-613 W196A: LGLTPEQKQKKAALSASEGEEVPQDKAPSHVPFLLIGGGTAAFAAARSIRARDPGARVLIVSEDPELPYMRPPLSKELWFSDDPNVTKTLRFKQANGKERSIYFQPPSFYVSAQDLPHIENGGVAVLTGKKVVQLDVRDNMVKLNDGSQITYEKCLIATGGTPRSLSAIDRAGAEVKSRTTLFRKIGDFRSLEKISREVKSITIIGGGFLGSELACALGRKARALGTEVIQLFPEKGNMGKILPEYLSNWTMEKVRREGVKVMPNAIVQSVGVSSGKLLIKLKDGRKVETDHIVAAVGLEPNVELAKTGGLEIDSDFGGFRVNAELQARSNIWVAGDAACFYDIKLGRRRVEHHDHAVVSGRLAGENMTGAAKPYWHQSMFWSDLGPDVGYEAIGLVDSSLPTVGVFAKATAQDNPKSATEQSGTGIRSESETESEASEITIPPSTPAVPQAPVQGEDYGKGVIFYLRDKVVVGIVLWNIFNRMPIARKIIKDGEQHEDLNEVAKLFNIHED

Columns and labels:
Experiment in all cases: ITC
Conditions in all cases: oxidized hAIF, no NADH; ITC: 50 mM potassium phosphate, pH 7.4; ~10 uM hAIF titrated with dsDNA; 25 C per Methods and Fig S7, but 15 C for DNA per Fig S8; recombinant protein; residues 102-613
[1] = target: hAIFΔ1-101 WT (oxidized) (Homo sapiens) (UniProt O95831)
[2] = target: hAIFΔ1-101 W196Y (oxidized) (Homo sapiens) (UniProt O95831)
[3] = target: hAIFΔ1-101 W196A (oxidized) (Homo sapiens) (UniProt O95831)

Work on “GGTTAGTTATGCGCG (double strand) [15-bp dsDNA]” yielded a pKd [1] of 5.80, a pKd [2] of 5.16 and a pKd [3] of 5.24.

pKd: −log10 of the molar value. For at least one entry, the source does not settle the construct or the ends of the probe.
